Measured values published in patent US20200384079A1, “Compositions of Fibroblast Growth Factor LIgands and Methods of Treating Patients Undergoing Ischemia-Reperfusion Therapy” (University of Cincinnati, priority 2017, published 2020).
These are yes or no findings as the source states them, for the method shown. Some binding calls cover weakened binding; strength is not graded here.

Sequences of proteins named here, by UniProt entry; tags and fusion partners are left off. A change or cut given only in a name is not applied to a line headed by its entry. Residues count along the entry.
UniProt Q04589, residues 22-822: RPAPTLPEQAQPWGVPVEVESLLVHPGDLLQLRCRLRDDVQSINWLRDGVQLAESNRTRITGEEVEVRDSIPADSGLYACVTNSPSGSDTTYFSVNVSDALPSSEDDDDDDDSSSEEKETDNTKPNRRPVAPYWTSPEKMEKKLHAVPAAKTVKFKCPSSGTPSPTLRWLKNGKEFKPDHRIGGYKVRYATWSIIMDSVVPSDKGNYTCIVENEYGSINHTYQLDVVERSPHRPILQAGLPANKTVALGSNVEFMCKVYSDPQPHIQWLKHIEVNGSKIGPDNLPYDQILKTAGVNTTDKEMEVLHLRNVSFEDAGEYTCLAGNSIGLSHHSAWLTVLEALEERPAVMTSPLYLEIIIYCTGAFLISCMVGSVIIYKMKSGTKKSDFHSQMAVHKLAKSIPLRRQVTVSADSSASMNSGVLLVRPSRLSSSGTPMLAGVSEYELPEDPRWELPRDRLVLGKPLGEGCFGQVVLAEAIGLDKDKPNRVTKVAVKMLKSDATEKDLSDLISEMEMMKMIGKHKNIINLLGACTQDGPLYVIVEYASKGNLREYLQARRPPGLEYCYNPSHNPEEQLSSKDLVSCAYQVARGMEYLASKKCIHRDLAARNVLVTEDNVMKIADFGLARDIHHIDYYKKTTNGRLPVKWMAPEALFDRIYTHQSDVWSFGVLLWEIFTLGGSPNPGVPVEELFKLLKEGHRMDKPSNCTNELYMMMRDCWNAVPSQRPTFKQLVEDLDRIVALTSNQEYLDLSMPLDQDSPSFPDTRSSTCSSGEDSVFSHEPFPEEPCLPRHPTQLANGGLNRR
UniProt P05230: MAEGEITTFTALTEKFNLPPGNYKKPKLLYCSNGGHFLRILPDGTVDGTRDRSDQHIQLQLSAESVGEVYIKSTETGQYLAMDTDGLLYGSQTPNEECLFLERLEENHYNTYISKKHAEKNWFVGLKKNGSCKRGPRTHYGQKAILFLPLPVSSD

Molecular target: FGF receptor-1 (FGFR1) in the left ventricle of treated rats (rat) (UniProt Q04589)
Assay: in vivo rat heart; inferred from FGFR1 and ERK1/2 phosphorylation immunoblots

binding: binds
Substance: FGF1^ΔHBS (FGF1 carrying the K127D/K128Q/K133V triple mutation in its HS-binding site) (from UniProt P05230 1-155) (ligand)
